Some entries share one result that the patent states for a list of compounds. For part of these data: At least one read-out could not be matched to a standard name with certainty.
Legend:
[1] = target: T1, cytoplasmic domain of the human VEGF receptor (VEGFR-2) (Homo sapiens, UniProt P35968); experiment: KDR Assay; type: biochemical; details: His-VEGFR-2; 3.6 μM ATP
T1 construct: The cytoplasmic domain of the human VEGF receptor (VEGFR-2) was expressed as a Histidine-tagged fusion protein; Histidine tag

Amino acid sequences for entries named in this document (tags omitted). Residues count along the entry.
UniProt P35968, 786-1356: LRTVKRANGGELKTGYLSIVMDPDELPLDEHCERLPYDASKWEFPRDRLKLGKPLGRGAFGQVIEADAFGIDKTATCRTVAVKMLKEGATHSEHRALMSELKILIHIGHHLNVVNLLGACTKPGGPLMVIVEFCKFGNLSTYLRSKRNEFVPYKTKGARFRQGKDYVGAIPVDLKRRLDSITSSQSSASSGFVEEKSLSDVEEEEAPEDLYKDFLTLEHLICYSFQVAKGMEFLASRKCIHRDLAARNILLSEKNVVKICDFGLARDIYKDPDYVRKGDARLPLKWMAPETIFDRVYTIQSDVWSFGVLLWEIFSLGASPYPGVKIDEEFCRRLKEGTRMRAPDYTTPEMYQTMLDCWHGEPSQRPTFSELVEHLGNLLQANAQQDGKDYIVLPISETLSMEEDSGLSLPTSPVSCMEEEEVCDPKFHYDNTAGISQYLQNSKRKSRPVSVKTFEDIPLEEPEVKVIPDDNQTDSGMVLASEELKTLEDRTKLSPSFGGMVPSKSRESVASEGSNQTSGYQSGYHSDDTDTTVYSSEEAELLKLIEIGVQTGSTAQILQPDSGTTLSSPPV

[2] = system: VEGF-induced EBD extravasation; experiment: VEGF-induced Dermal Extravasation in Guinea Pig (Miles Assay); type: in vivo; details: summary of Tables 2, 3 and 4; oral administration
Protocol: VEGF-induced Dermal Extravasation in Guinea Pig (Miles Assay). Male Hartley guinea pigs (300-600 g) were anesthetized with isofluorane, sheared, and given a single dose of drug or the respective vehicle. The guinea pigs were dosed orally unless indicated otherwise in Table 3. Ten minutes prior to the end of drug treatment, guinea pigs were anesthetized with isofluorane, and 0.5% Evans blue dye (EBD) in PBS (13-15 mg/kg dose of EBD) was injected intravenously. After 5 minutes, triplicate intradermal injections of 100 ng rhVEGF165 in 100 μl PBS and of 100 μl PBS alone were administered on the flank. After 20 minutes, each animal was euthanized with Pentosol, and the skin containing the intradermal injection sites was removed for image analysis.
Using an analog video camera coupled to a PC, an image of each trans-illuminated skin sample was captured, and the integrated optical density of each injection site was measured using ImagePro 4. For each skin sample, the difference between the mean optical density of the VEGF sites and mean optical density of the PBS sites is the measure of VEGF-induced EBD extravasation in that animal. These measured values were averaged per study group to determine the mean VEGF-induced EBD extravasation for each experimental condition, and the group means were then compared to assess inhibition of VEGF-induced EBD extravasation in the drug-treated groups relative to the vehicle-treated controls.
To determine the dose required for 50% inhibition (ID50), the percent inhibition data was plotted as a function of oral dose, using the ‘best-fit’ analysis within MicroSoft Excel software. The ID50 value was verified visually by using the plotted data (horizontal line from 50% y value, at intersection with best-fit line drop vertical line to x axis (dose)).

[3] = system: VEGF induced increases in intracellular calcium levels in HUVEC (human umbilical vein endothelial cells); experiment: VEGF Stimulated Ca++ Signal in vitro (FLIPR); type: cell-based; details: either-or criterion summarising Table 2
Protocol: Cells were loaded with calcium indicator Fluo-4 for 45 minutes at 37° C. Cells were washed 4 times (Original Cell Wash, Labsystems) to remove extracellular dye. […] Data were generated by determining max-min fluorescence levels for unstimulated, stimulated, and drug treated samples. IC50 values for test compounds were calculated from % inhibition of VEGF stimulated responses in the absence of inhibitor.

| Structure (SMILES) | IC50 [1] [µM] | in-vivo activity [2] | % inhibition of VEGF or VEGF IC50 in either the VEGF stimulated Ca++ signal assay or KDR assay [3] |
| --- | --- | --- | --- |
| O=C1Nc2ccccc2C1=CNc1ccc(OCCCCN2CCCC2)cc1 [Example 179, 3-{[4-(4-Pyrrolidin-1-yl-butoxy)-phenylamino]-methylene}-1,3-dihydro-indol-2-one] | ≤ 1 | significant in-vivo activity | either % inhibition of VEGF>79% or VEGIF IC50<1.0 μM |
| Cc1cccc2c1C(=CNc1ccc(N)cc1)C(=O)N2 [Example 181, 3-[(4-Amino-phenylamino)-methylene]-4-methyl-1,3-dihydro-indol-2-one] | ≤ 1 | significant in-vivo activity | either % inhibition of VEGF>79% or VEGIF IC50<1.0 μM |
| O=C1Nc2ccccc2C1=CNc1ccc(OCCCCN2CCOCC2)cc1 [Example 206, 3-{[4-(4-Morpholin-4-yl-butoxy)-phenylamino]-methylene}-1,3-dihydro-indol-2-one] | ≤ 1 | significant in-vivo activity | either % inhibition of VEGF>79% or VEGIF IC50<1.0 μM |
| CCN(CC)CCCCOc1ccc(NC=C2C(=O)Nc3ccccc32)cc1 [Example 207, 3-{[4-(4-Diethylamino-butoxy)-phenylamino]-methylene}-1,3-dihydro-indol-2-one] | ≤ 1 | significant in-vivo activity | either % inhibition of VEGF>79% or VEGIF IC50<1.0 μM |
| CN1CCN(CCCCOc2ccc(NC=C3C(=O)Nc4ccccc43)cc2)CC1 [Example 208, 3-({4-[4-(4-Methyl-piperazin-1-yl)-butoxy]-phenylamino}-methylene)-1,3-dihydro-indol-2-one] | ≤ 1 | significant in-vivo activity | either % inhibition of VEGF>79% or VEGIF IC50<1.0 μM |
| O=C1Nc2ccccc2C1=CNc1ccc(OCCCCN2CCCCC2)cc1 [Example 209, 3-{[4-(4-Piperidin-1-yl-butoxy)-phenylamino]-methylene}-1,3-dihydro-indol-2-one] | ≤ 1 | significant in-vivo activity | either % inhibition of VEGF>79% or VEGIF IC50<1.0 μM |
| Nc1cccc(NC=C2C(=O)Nc3ccccc32)c1 [Example 211, 3-[(3-Amino-phenylamino)-methylene]-1,3-dihydro-indo1-2-one] | ≤ 1 | significant in-vivo activity | either % inhibition of VEGF>79% or VEGIF IC50<1.0 μM |
| CCN(CC)CCCOc1ccc(NC=C2C(=O)Nc3ccccc32)cc1 [Example 214, 3-{[14-(3-Diethylamino-propoxy)-phenylamino]-methylene}-1,3-dihydro-indol-2-one] | ≤ 1 | significant in-vivo activity | either % inhibition of VEGF>79% or VEGIF IC50<1.0 μM |
| O=C1Nc2ccccc2C1=CNc1ccc(OCCCN2CCOCC2)cc1 [Example 215, 3-{[4-(3-Morpholin-4-yl-propoxy)-phenylamino]-methylene}-1,3-dihydro-indol-2-one] | ≤ 1 | significant in-vivo activity | either % inhibition of VEGF>79% or VEGIF IC50<1.0 μM |
| O=C1Nc2ccccc2C1=CNc1ccc(OCCCN2CCCC2)cc1 [Example 216, 3-{[4-(3-Pyrrolidin-1-yl-propoxy)-phenylamino]-methylene}-1,3-dihydro-indol-2-one] | ≤ 1 | significant in-vivo activity | either % inhibition of VEGF>79% or VEGIF IC50<1.0 μM |
| O=C1Nc2ccccc2C1=CNc1ccc(OCCCN2CCCCC2)cc1 [Example 218, 3-{[4-(3-Piperidin-1-yl-propoxy)-phenylamino]-methylene}-1,3-dihydro-indol-2-one] | ≤ 1 | significant in-vivo activity | either % inhibition of VEGF>79% or VEGIF IC50<1.0 μM |
| CC1CN(c2ccc(NC=C3C(=O)Nc4ccc(F)cc43)cc2)CC(C)O1 (stereo not drawn) [Example 219, 3-{[4-(2,6-Dimethyl-morpholin-4-yl)-phenylamino]-methylene}-5-fluoro-1,3-dihydro-indol-2-one] | ≤ 1 | significant in-vivo activity | either % inhibition of VEGF>79% or VEGIF IC50<1.0 μM |
| Cc1cccc2c1C(=CNc1ccc(N3CC(C)OC(C)C3)cc1)C(=O)N2 (stereo not drawn) [Example 220, 3-{[4-(2,6-Dimethyl-morpholin-4-yl)-phenylamino]-methylene}-4-methyl-1,3-dihydro-indol-2-one] | ≤ 1 | significant in-vivo activity | either % inhibition of VEGF>79% or VEGIF IC50<1.0 μM |
| CC1CN(c2ccc(NC=C3C(=O)Nc4cc(F)ccc43)cc2)CC(C)O1 (stereo not drawn) [Example 229, 3-{[4-(2,6-Dimethyl-morpholin-4-yl)-phenylamino]-methylene}-6-fluoro-1,3-dihydro-indol-2-one] | ≤ 1 | significant in-vivo activity | either % inhibition of VEGF>79% or VEGIF IC50<1.0 μM |
| CCN(CC)CCCOc1ccc(NC=C2C(=O)Nc3cccc(C)c32)cc1 [Example 231, 3-{[4-(3-Diethylamino-propoxy)-phenylamino]-methylene}-4-methyl-1,3-dihydro-indol-2-one] | ≤ 1 | significant in-vivo activity | either % inhibition of VEGF>79% or VEGIF IC50<1.0 μM |
| CCN(CC)CCCOc1ccc(NC=C2C(=O)Nc3cc(F)ccc32)cc1 [Example 234, 3-{[4-(3-Diethylamino-propoxy)-phenylamino]-methylene}-6-fluoro-1,3-dihydro-indol-2-one] | ≤ 1 | significant in-vivo activity | either % inhibition of VEGF>79% or VEGIF IC50<1.0 μM |
| O=C1Nc2ccccc2C1=CNc1ccc(NCCN2CCOCC2)cc1 [Example 235, 3-{[4-(2-Morpholin-4-yl-ethylamino)-phenylamino]-methylene}-1,3-dihydro-indol-2-one] | ≤ 1 | significant in-vivo activity | either % inhibition of VEGF>79% or VEGIF IC50<1.0 μM |
| Cc1cccc2c1C(=CNc1ccc(OCCCN3CCCCC3)cc1)C(=O)N2 [Example 238, 4-Methyl-3-{[4-(3-piperidin-1-yl-propoxy)-phenylamino]-methylene}-1,3-dihydro-indol-2-one] | ≤ 1 | significant in-vivo activity | either % inhibition of VEGF>79% or VEGIF IC50<1.0 μM |
| O=C1Nc2cc(F)ccc2C1=CNc1ccc(OCCCN2CCCCC2)cc1 [Example 239, 6-Fluoro-3-{[4-(3-piperidin-1-yl-propoxy)-phenylamino]-methylene}-1,3-dihydro-indol-2-one] | ≤ 1 | significant in-vivo activity | either % inhibition of VEGF>79% or VEGIF IC50<1.0 μM |
| O=C1Nc2cc(F)ccc2C1=CNc1ccc(NCCN2CCOCC2)cc1 [Example 243, 6-Fluoro-3-{[4-(2-morpholin-4-yl-ethylamino)-phenylamino]-methylene}-1,3-dihydro-indol-2-one] | ≤ 1 | significant in-vivo activity | either % inhibition of VEGF>79% or VEGIF IC50<1.0 μM |
| O=C1Nc2cc(F)ccc2C1=CNc1ccc(OCCCCN2CCCCC2)cc1 [Example 247, 6-Fluoro-3-{[4-(4-piperidin-1-yl-butoxy)-phenylamino]-methylene}-1,3-dihydro-indol-2-one] | ≤ 1 | significant in-vivo activity | either % inhibition of VEGF>79% or VEGIF IC50<1.0 μM |

Source: patent US20030225152A1, “3-(Arylamino)methylene-1, 3-dihydro-2h-indol-2-ones as kinase inhibitors” (priority 2001, published 2003)
